# Structures were worked out from names or drawings and are uncertain.
# Chains of the proteins cited; added tags and fusions are not shown. Residues count along the entry.
# UniProt O75417, 1-899 limits assumed: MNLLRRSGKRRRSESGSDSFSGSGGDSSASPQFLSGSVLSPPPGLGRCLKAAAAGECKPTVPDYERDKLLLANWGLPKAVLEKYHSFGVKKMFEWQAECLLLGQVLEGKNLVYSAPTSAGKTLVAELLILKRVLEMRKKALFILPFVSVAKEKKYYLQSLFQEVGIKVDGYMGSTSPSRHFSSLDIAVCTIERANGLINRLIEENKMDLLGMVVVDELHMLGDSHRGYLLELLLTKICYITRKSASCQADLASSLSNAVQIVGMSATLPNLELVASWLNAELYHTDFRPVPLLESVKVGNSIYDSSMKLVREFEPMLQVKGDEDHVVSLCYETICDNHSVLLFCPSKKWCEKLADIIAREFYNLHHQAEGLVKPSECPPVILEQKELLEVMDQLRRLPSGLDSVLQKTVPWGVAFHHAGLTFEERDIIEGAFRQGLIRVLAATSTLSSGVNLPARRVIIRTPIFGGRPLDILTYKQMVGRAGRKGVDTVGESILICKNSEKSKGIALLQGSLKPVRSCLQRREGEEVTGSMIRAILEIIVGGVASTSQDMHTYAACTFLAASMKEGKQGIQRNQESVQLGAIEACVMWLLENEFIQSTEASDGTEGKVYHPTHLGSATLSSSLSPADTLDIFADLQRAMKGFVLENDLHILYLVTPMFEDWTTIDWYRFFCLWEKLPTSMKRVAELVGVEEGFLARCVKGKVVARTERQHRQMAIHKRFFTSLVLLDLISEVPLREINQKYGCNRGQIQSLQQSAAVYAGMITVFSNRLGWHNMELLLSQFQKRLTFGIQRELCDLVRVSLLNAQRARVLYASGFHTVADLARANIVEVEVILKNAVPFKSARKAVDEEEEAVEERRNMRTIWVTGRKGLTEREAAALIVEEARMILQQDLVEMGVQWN
# Molecular target: Polθ theta (1-899) (hPolQ) (Homo sapiens (Human), UniProt O75417)
# Assay: Biological Assay 1: Polθ ATPase activity, NADH oxidation-coupled enzymatic assay (10 nM enzyme, 30 min)
# Conditions: read-out: ATPase NADH coupling:Standard Screening:hPolQ IC50; Polθ (1-899) 10 nM, 100 μM ATP, 300 nM dT50 ssDNA; Examples 1 to 268
# Experimental: The ability of the compounds of Formula (I), (II), (III), (IV), or Table 1 (Examples 1 to Example 268) to inhibit ATPase activity of Polθ theta (1-899) was determined using the assay described below.
# Polθ Theta ATPase activity was determined by measuring the rate of ATP turn over in a NADH oxidation-coupled enzymatic assay. 10-point dilution series of compounds were used in a 384 well format for the inhibition assays. Polθ theta (1-899) (10 nM) in assay buffer (20 mM Tris HCl (pH 7.80), 80 mM KCl, 10 mM MgCl2, 1 mM DTT, 0.01% BSA, 0.01% Tween, 5% glycerol) was transferred to the test wells (20 μL), except the low control wells (20 μL of assay buffer was added to the low control wells). The plate was then incubated at room temperature for 15 min. An equal volume (20 μL) of 100 μM ATP, 300 nM dT50 (single-stranded DNA (ssDNA) containing 50 thymine bases), 300 μM NADH, 6 mM PEP, 10 U/mL lactate dehydrogenase and U/mL pyruvate kinase in assay buffer was added to all the test wells. The plate was then centrifuged at 1000 rpm for 1 min. The reaction was monitored for 30 min by measuring absorbance (λ=340 nm) in a Tecan Spark multimode plate reader every minute. The high control (DMSO with enzyme) with low absorbance intensity represents no inhibition of ATPase reaction while the low control (DMSO with buffer) with high absorbance intensity represents full inhibition of ATPase activity. […]
structure (smiles),measurement,value
"COc1cnc(Cl)cc1-c1cc(C)ncc1C(=O)Nc1nnc(OCC2CCO2)s1 (single isomer, unassigned)",IC50,< 200 nM

# Reference: US20250325552A1, “SUBSTITUTED THIADIAZOLYL DERIVATIVES AS DNA POLYMERASE THETA INHIBITORS” (IDEAYA Biosciences, Inc., priority 2020, published 2025)
